The other results are listed elsewhere or left out.
Experiments:
Experiment in all cases: log2 fold change, soluble protein after heating vs DMSO (PISA); higher = thermal stabilisation; K562 lysate, 10 uM; active = over 0.2 and 3.5 SD of the protein, either way, in both replicates (recomputed)
ibrutinib = compound: C=CC(=O)N1CCC[C@@H](n2nc(-c3ccc(Oc4ccccc4)cc3)c3c(N)ncnc32)C1 [ibrutinib]
Outline: (§1)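 Thermal stability, expressed as log-two fold change relative to solvent controls, is given from duplicates. Crude K562 extract in PBS pH 7.4 with 1 mM MgCl2, at 1 mg/mL protein, was treated with 10 μM compound for 30 min and heated in aliquots for 3 min across 48°C-58°C. After pooling, adjustment to 0.5% NP-40 at 4°C and centrifugation at 21,000xg for 90 min, supernatant protein was measured by TMTpro 16plex LC-MS/MS with channel sums equalised.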

Sequences of proteins named here, by UniProt entry; tags and fusion partners are left off. A change or cut given only in a name is not applied to a line headed by its entry.
UniProt Q9NYU2: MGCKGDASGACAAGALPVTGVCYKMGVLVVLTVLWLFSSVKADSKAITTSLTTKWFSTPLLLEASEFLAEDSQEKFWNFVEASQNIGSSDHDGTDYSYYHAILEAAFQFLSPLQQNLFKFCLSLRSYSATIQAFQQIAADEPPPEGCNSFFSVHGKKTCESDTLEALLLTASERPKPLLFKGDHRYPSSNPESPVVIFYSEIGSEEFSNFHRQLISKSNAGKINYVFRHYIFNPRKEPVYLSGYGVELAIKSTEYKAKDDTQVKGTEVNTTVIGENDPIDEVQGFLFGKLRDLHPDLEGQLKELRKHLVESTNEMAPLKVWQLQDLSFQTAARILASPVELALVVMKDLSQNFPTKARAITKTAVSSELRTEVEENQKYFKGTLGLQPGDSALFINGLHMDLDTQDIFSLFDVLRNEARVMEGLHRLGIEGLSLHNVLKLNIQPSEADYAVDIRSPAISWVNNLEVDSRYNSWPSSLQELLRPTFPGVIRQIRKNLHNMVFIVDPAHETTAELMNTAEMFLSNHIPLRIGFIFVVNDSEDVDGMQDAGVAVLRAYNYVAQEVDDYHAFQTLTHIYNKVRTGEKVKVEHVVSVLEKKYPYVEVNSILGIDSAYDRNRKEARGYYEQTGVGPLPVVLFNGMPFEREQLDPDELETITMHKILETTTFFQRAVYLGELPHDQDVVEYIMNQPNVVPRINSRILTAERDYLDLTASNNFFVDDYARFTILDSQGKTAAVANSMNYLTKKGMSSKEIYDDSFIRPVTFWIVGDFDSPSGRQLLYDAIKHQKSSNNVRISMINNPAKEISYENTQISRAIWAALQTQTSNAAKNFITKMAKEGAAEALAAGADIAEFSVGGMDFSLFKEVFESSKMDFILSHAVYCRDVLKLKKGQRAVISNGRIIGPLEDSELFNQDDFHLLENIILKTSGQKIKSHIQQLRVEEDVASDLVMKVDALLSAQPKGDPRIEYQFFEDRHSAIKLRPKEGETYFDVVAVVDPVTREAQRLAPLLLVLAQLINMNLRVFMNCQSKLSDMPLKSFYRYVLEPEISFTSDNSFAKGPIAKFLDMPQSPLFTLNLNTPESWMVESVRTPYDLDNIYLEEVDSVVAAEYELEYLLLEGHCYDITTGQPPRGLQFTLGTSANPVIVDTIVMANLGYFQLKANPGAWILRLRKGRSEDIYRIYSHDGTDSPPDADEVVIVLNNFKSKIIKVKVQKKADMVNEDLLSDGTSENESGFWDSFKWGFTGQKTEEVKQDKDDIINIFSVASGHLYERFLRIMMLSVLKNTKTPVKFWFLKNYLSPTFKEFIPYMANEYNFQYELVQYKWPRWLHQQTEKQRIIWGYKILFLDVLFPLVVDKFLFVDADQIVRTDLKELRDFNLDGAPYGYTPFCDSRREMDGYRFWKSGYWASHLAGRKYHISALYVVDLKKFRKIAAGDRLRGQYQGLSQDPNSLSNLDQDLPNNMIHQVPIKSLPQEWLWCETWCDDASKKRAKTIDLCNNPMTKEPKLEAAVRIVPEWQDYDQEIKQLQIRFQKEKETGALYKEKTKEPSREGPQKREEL
UniProt Q9Y4E8: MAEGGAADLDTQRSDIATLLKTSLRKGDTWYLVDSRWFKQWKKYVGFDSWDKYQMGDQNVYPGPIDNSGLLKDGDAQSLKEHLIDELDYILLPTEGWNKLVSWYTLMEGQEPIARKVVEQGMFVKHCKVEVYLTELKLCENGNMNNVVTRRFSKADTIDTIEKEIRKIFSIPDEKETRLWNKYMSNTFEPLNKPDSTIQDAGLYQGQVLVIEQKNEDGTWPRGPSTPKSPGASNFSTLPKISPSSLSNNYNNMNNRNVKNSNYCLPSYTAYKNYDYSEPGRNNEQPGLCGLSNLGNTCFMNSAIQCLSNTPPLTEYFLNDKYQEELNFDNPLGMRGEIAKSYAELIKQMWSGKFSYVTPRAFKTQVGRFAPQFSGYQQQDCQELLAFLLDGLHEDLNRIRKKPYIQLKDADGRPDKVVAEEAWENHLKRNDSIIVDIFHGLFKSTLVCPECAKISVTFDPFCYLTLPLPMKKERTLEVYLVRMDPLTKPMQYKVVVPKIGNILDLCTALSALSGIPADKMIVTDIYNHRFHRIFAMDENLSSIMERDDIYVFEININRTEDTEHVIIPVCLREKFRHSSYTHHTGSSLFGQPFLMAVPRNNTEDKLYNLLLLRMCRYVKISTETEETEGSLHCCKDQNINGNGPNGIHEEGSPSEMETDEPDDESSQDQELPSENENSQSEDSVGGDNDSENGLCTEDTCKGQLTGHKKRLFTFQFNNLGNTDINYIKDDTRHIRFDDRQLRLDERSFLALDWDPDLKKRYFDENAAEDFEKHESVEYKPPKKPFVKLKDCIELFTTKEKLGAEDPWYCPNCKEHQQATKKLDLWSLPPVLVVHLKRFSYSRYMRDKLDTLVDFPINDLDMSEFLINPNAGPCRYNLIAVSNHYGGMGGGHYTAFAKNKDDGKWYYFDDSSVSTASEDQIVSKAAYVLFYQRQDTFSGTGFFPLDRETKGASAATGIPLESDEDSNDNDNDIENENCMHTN
UniProt P31930: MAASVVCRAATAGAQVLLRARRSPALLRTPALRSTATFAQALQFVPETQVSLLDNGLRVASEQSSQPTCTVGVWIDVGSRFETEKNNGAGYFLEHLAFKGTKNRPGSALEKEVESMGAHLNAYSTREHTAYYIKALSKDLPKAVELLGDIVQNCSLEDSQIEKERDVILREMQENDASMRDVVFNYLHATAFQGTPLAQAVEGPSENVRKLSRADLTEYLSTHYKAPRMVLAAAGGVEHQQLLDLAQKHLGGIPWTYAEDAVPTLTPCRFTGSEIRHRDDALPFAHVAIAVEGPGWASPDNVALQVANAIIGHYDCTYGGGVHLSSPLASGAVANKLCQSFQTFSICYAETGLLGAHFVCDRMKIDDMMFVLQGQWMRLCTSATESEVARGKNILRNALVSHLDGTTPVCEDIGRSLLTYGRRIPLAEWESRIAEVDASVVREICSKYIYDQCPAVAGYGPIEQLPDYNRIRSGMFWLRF
UniProt P55072, whole entry, looked up: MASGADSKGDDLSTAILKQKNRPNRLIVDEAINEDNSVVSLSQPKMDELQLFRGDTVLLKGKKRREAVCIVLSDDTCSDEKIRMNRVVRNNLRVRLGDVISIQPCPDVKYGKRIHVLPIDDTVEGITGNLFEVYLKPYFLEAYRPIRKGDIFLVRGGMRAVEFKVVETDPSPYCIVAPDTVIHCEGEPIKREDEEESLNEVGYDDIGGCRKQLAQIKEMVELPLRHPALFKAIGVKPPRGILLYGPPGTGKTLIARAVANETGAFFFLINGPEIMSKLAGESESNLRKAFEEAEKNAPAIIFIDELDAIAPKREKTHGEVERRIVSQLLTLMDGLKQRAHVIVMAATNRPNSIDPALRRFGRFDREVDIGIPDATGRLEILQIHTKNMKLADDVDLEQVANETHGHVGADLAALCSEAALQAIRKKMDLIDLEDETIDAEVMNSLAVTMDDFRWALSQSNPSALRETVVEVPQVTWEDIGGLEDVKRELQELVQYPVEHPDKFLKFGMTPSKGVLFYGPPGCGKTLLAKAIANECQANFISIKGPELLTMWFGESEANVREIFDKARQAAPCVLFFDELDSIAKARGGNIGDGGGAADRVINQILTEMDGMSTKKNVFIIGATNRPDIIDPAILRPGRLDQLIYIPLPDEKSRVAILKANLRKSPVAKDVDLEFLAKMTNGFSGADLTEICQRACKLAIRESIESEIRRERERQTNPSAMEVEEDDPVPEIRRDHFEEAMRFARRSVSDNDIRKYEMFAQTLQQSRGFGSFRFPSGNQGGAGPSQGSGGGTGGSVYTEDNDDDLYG
UniProt Q8TAA9: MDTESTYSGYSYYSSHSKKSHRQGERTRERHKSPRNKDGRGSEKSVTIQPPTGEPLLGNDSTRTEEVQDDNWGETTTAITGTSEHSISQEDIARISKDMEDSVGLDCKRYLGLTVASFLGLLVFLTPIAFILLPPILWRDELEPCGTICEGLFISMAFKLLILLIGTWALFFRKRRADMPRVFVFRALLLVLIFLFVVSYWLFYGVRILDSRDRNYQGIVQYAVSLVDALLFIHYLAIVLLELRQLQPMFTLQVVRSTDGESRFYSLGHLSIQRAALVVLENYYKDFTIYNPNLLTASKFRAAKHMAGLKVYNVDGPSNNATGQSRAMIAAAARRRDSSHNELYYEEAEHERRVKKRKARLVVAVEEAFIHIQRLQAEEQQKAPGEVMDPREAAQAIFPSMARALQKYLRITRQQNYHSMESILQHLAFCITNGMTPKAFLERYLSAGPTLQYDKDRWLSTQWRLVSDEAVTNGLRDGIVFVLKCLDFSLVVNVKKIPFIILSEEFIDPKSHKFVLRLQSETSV
UniProt Q9H9C1: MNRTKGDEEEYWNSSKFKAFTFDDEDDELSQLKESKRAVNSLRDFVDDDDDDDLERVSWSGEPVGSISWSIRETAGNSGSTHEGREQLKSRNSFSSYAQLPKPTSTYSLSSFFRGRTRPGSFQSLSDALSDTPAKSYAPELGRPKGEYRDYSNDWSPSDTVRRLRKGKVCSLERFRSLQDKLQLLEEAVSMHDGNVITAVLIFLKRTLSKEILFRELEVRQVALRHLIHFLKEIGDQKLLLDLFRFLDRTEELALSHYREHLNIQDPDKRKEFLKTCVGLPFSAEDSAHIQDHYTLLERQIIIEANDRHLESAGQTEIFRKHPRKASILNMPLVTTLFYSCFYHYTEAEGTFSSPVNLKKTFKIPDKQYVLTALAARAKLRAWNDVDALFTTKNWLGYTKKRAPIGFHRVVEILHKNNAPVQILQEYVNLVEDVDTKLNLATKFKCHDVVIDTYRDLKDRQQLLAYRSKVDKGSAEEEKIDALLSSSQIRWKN
UniProt A6NIH7: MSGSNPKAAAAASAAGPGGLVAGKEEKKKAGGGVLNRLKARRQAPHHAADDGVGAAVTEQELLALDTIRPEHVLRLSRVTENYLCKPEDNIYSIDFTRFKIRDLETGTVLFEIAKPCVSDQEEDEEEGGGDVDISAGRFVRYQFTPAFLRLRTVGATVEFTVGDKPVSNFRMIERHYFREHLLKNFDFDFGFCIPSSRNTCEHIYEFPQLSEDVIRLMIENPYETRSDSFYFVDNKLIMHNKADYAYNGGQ
UniProt Q9Y5T5, whole entry, looked up: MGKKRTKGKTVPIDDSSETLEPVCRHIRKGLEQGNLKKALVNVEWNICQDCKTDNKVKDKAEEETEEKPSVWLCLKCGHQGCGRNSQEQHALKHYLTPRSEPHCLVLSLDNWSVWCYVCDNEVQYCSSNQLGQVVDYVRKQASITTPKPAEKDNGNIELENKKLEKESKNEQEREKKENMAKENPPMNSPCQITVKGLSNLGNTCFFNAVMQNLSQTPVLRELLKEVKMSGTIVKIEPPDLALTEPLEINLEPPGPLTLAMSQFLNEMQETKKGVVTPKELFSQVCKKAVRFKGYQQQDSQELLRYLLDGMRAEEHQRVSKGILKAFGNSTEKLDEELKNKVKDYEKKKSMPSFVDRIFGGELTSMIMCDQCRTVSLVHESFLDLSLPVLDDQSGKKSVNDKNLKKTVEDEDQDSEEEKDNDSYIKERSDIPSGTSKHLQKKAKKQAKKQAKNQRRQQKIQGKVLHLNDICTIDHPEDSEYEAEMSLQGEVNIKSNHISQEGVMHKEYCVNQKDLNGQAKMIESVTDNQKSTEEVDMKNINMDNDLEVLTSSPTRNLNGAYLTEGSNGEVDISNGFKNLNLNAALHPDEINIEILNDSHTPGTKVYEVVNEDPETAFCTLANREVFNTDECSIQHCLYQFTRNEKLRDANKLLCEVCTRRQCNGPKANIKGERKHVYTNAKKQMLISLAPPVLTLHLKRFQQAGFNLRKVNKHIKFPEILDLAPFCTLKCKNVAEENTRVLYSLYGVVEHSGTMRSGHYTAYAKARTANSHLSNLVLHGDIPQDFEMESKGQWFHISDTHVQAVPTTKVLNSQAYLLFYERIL
UniProt Q969X6: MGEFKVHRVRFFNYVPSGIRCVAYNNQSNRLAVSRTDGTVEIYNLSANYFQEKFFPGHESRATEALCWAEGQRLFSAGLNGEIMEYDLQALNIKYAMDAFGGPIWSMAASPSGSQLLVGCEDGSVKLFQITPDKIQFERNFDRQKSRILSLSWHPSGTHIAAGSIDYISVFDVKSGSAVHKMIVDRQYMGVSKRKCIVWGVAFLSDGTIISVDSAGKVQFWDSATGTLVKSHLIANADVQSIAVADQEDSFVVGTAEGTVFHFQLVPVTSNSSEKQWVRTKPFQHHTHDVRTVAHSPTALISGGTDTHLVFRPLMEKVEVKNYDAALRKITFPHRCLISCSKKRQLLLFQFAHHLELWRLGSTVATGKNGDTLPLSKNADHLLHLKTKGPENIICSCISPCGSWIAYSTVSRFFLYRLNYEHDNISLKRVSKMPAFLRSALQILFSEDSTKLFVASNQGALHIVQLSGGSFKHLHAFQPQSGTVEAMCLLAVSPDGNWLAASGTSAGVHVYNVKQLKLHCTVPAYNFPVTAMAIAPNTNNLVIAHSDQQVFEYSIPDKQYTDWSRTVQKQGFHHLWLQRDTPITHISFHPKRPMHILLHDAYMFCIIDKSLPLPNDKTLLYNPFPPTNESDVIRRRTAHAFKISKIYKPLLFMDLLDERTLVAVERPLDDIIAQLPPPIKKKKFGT

[1] = compound: CC(=O)c1cnc2ccc(-c3cc(Cl)c(O)c(Cl)c3)nc2c1N[C@H]1CC[C@H](CN(C)C)CC1
Outline: as §1

ralimetinib = compound: CC(C)(C)Cn1c(N)nc2ccc(-c3[nH]c(C(C)(C)C)nc3-c3ccc(F)cc3)nc21 [ralimetinib]
Outline: as §1

[2] = compound: CC(C)(O)CC(=O)NCCn1ccc2ncnc(Nc3ccc(Oc4cccc(C(F)(F)F)c4)c(Cl)c3)c21
Outline: as §1

[3] = compound: CC(C)C1=C2N=C(C=C(N2N=C1)NCC3=CC=CC=C3)NCCCCCCN
Outline: as §1

[4] = compound: CC1=C(C(CC(=O)N1)C2=CC=C(C=C2)C(F)(F)F)C(=O)NC3=C(C=C4C(=C3)C=NN4)F
Outline: as §1

[5] = compound: CC1=C(C2=C(C=C1)C(=O)C3=CC=CC=C3N2CCCN)C
Outline: as §1

[6] = compound: CC1=C(C=C(C=C1)NC(=O)C2=CC(=CC=C2)C(C)(C)C#N)NC3=CC4=C(C=C3)N=CN(C4=O)C
Outline: as §1

[7] = compound: CC1=C(C=C(C=C1)NC(=O)C2=CC(=CC=C2)N(C)C)NC(=O)C3=CC=C(C=C3)O
Outline: as §1

[8] = compound: CC1=CC=C(C=C1)SC2=C3C=C(SC3=CN=C2)C(=O)N
Outline: as §1

vemurafenib = compound: CCCS(=O)(=O)Nc1ccc(F)c(C(=O)c2c[nH]c3ncc(-c4ccc(Cl)cc4)cc23)c1F [vemurafenib]
Outline: as §1

[9] = compound: CCCS(=O)(=O)Nc1ccc(F)c(C(=O)c2c[nH]c3ncc(Cl)cc23)c1F
Outline: as §1

barasertib = compound: CCN(CCCOc1ccc2c(Nc3cc(CC(=O)Nc4cccc(F)c4)[nH]n3)ncnc2c1)CCOP(=O)(O)O [barasertib]
Outline: as §1

[10] = compound: CC[C@@H]1C(=O)N(C)c2cnc(Nc3ccc(C(=O)NC4CCN(C)CC4)cc3OC)nc2N1C1CCCC1
Outline: as §1

volasertib = compound: CC[C@@H]1C(=O)N(C)c2cnc(Nc3ccc(C(=O)N[C@H]4CC[C@H](N5CCN(CC6CC6)CC5)CC4)cc3OC)nc2N1C(C)C [volasertib]
Outline: as §1

[11] = compound: CCn1c(C(=O)N(C2CC2)C2CC2)cc2c3c(ncn3C)c(Nc3cc(C)n(C)n3)nc21
Outline: as §1

[12] = compound: CCn1cc(-c2ccnc3[nH]c(-c4cccc(CN(C)C)c4)cc23)c(-c2ccc(NC(=O)N(C)C)cc2)n1
Outline: as §1

[13] = compound: CN1CCC(CNc2ccc3ncc(-c4cccc(OC(F)(F)F)c4)n3n2)CC1
Outline: as §1

saracatinib = compound: CN1CCN(CCOc2cc(OC3CCOCC3)c3c(Nc4c(Cl)ccc5c4OCO5)ncnc3c2)CC1 [saracatinib]
Outline: as §1

sotrastaurin = compound: CN1CCN(c2nc(C3=C(c4c[nH]c5ccccc45)C(=O)NC3=O)c3ccccc3n2)CC1 [sotrastaurin]
Outline: as §1

Measured: log2 fold change

UGGT1 (UniProt Q9NYU2)
inactive: ibrutinib -0.006 | [1] -0.013 | ralimetinib 0.015 | [2] 0.003 | [3] 0 | [4] 0.024 | [5] -0.009 | [6] -0.002 | [7] -0.001 | [8] 0 | vemurafenib 0.007 | [9] 0.006 | barasertib -0.001 | [10] -0.011 | volasertib 0.001 | [11] 0 | [12] -0.05 | [13] 0.012 | saracatinib 0.006 | sotrastaurin 0.006

USP15 (UniProt Q9Y4E8)
inactive: ibrutinib -0.013 | [1] -0.001 | ralimetinib 0.001 | [2] 0.007 | [3] -0.008 | [4] -0.009 | [5] 0 | [6] -0.032 | [7] 0 | [8] 0.018 | vemurafenib 0.012 | [9] 0.008 | barasertib -0.012 | [10] -0.046 | volasertib -0.018 | [11] 0.011 | [12] 0.029 | [13] -0.033 | saracatinib 0.005 | sotrastaurin 0.007

USP34 (UniProt Q70CQ2)
inactive: ibrutinib 0.002 | [1] 0.006 | ralimetinib 0.011 | [2] -0.027 | [3] 0.001 | [4] -0.001 | [5] -0.032 | [6] 0.014 | [7] 0.026 | [8] 0 | vemurafenib 0.006 | [9] 0.039 | barasertib 0.048 | [10] -0.054 | volasertib -0.052 | [11] 0.014 | [12] 0.027 | [13] -0.079 | saracatinib 0.026 | sotrastaurin -0.008

UQCRC1 (UniProt P31930)
inactive: ibrutinib 0 | [1] 0.001 | ralimetinib -0.009 | [2] -0.014 | [3] -0.006 | [4] -0.021 | [5] -0.005 | [6] 0.036 | [7] -0.022 | [8] -0.021 | vemurafenib -0.013 | [9] 0.004 | barasertib -0.018 | [10] 0.04 | volasertib 0.003 | [11] 0.009 | [12] -0.013 | [13] 0.028 | saracatinib -0.003 | sotrastaurin -0.036

VCP (UniProt P55072)
inactive: ibrutinib 0.015 | [1] -0.009 | ralimetinib -0.031 | [2] -0.007 | [3] 0.005 | [4] -0.018 | [5] 0.018 | [6] 0.012 | [7] -0.016 | [8] -0.012 | vemurafenib -0.004 | [9] 0.011 | barasertib -0.042 | [10] 0.037 | volasertib 0.026 | [11] -0.015 | [12] 0.076 | [13] -0.013 | saracatinib 0.021 | sotrastaurin -0.015

VARS2, A0A0G2JL52
inactive: ibrutinib 0.024 | [1] 0.012 | ralimetinib -0.042 | [2] -0.056 | [3] -0.022 | [4] -0.09 | [5] -0.007 | [6] -0.021 | [7] -0.006 | [8] -0.005 | vemurafenib -0.024 | [9] 0.037 | barasertib 0.003 | [10] -0.018 | volasertib -0.027 | [11] -0.022 | [12] -0.137 | [13] 0.039 | saracatinib 0.016 | sotrastaurin 0.03

VAT1 (UniProt Q99536)
inactive: ibrutinib 0.001 | [1] 0.006 | ralimetinib -0.019 | [2] -0.021 | [3] -0.021 | [4] -0.021 | [5] -0.013 | [6] 0.008 | [7] 0.002 | [8] -0.007 | vemurafenib 0.019 | [9] -0.004 | barasertib -0.019 | [10] 0.039 | volasertib 0.024 | [11] -0.028 | [12] -0.029 | [13] 0.039 | saracatinib -0.017 | sotrastaurin -0.021

UQCR11 (UniProt O14957)
inactive: ibrutinib 0.191 | [1] -0.006 | ralimetinib 0.11 | [2] -0.005 | [3] 0.001 | [4] -0.085 | [5] -0.142 | [6] 0.034 | [7] -0.019 | [8] 0.045 | vemurafenib -0.024 | [9] 0.004 | barasertib 0.158 | [10] -0.121 | volasertib 0.073 | [11] -0.023 | [12] 0.278 | [13] -0.056 | saracatinib -0.013 | sotrastaurin 0.06

VANGL1 (UniProt Q8TAA9)
active: ralimetinib -0.317
inactive: ibrutinib 0.08 | [1] -0.041 | [2] 0.183 | [3] 0.037 | [4] 0.007 | [5] -0.109 | [6] -0.062 | [7] -0.066 | [8] 0.007 | vemurafenib -0.075 | [9] 0.023 | barasertib 0.101 | [10] 0.004 | volasertib -0.009 | [11] 0.105 | [12] -0.088 | [13] 0.058 | saracatinib 0.044 | sotrastaurin 0.125

Looked up one by one from above (two):
VAT1 (UniProt Q99536)
inactive: ibrutinib 0.001 | [1] 0.006 | ralimetinib -0.019 | [2] -0.021 | [3] -0.021 | [4] -0.021 | [5] -0.013 | [6] 0.008 | [7] 0.002 | [8] -0.007 | vemurafenib 0.019 | [9] -0.004 | barasertib -0.019 | [10] 0.039 | volasertib 0.024 | [11] -0.028 | [12] -0.029 | [13] 0.039 | saracatinib -0.017 | sotrastaurin -0.021

VANGL1 (UniProt Q8TAA9)
active: ralimetinib -0.317
inactive: ibrutinib 0.08 | [1] -0.041 | [2] 0.183 | [3] 0.037 | [4] 0.007 | [5] -0.109 | [6] -0.062 | [7] -0.066 | [8] 0.007 | vemurafenib -0.075 | [9] 0.023 | barasertib 0.101 | [10] 0.004 | volasertib -0.009 | [11] 0.105 | [12] -0.088 | [13] 0.058 | saracatinib 0.044 | sotrastaurin 0.125

Continued:

UMPS (UniProt P11172)
inactive: ibrutinib 0.006 | [1] -0.024 | ralimetinib 0.021 | [2] -0.002 | [3] -0.011 | [4] 0.009 | [5] 0.034 | [6] -0.01 | [7] 0.009 | [8] -0.003 | vemurafenib -0.059 | [9] 0.015 | barasertib 0.015 | [10] -0.062 | volasertib -0.032 | [11] 0.034 | [12] 0.013 | [13] -0.043 | saracatinib 0.009 | sotrastaurin 0.014

UPRT (UniProt Q96BW1)
inactive: ibrutinib 0.042 | [1] 0.156 | ralimetinib 0.101 | [2] -0.091 | [3] 0.026 | [4] 0.012 | [5] 0.005 | [6] -0.025 | [7] 0.077 | [8] 0.074 | vemurafenib -0.063 | [9] 0.125 | barasertib -0.004 | [10] 0.109 | volasertib 0.063 | [11] -0.027 | [12] 0.022 | [13] 0.05 | saracatinib 0.026 | sotrastaurin -0.073

UTP6 (UniProt Q9NYH9)
inactive: ibrutinib 0.171 | [1] 0.114 | ralimetinib 0.031 | [2] -0.065 | [3] 0.255 | [4] 0.043 | [5] -0.064 | [6] 0.022 | [7] 0.062 | [8] -0.26 | vemurafenib -0.024 | [9] -0.058 | barasertib -0.167 | [10] -0.018 | volasertib -0.074 | [11] -0.033 | [12] -0.089 | [13] 0.011 | saracatinib 0.067 | sotrastaurin 0.041

VIPAS39 (UniProt Q9H9C1)
inactive: ibrutinib 0.037 | [1] 0.03 | ralimetinib -0.007 | [2] -0.093 | [3] -0.045 | [4] -0.059 | [5] -0.123 | [6] 0.02 | [7] -0.012 | [8] -0.074 | vemurafenib -0.005 | [9] -0.007 | barasertib 0.04 | [10] 0.187 | volasertib -0.036 | [11] -0.019 | [12] -0.015 | [13] 0.063 | saracatinib 0.046 | sotrastaurin 0.04

UNC119B (UniProt A6NIH7)
inactive: ibrutinib -0.034 | [1] -0.022 | ralimetinib -0.098 | [2] 0.011 | [3] 0.035 | [4] 0.019 | [5] -0.086 | [6] 0.059 | [7] -0.034 | [8] -0.04 | vemurafenib 0.079 | [9] 0.013 | barasertib 0.038 | [10] 0.171 | volasertib 0.001 | [11] -0.018 | [12] -0.1 | [13] 0.054 | saracatinib -0.048 | sotrastaurin 0.001

USP16 (UniProt Q9Y5T5)
inactive: ibrutinib -0.027 | [1] -0.035 | ralimetinib -0.001 | [2] 0.011 | [3] 0.017 | [4] 0 | [5] -0.06 | [6] -0.027 | [7] -0.012 | [8] 0.019 | vemurafenib 0.038 | [9] 0.005 | barasertib 0.016 | [10] -0.009 | volasertib -0.011 | [11] 0.01 | [12] 0.039 | [13] -0.045 | saracatinib 0.054 | sotrastaurin 0.013

UTP4 (UniProt Q969X6)
inactive: ibrutinib 0.018 | [1] -0.016 | ralimetinib -0.006 | [2] 0.001 | [3] -0.03 | [4] -0.02 | [5] 0.029 | [6] -0.002 | [7] 0.013 | [8] 0.003 | vemurafenib 0.024 | [9] 0.027 | barasertib -0.038 | [10] 0.071 | volasertib -0.003 | [11] 0.023 | [12] -0.026 | [13] 0.016 | saracatinib 0.061 | sotrastaurin 0.025

Reference: the supplement of paper PMC10849652
